Construct, isoform or probe ends are uncertain for at least one entry.
Test system: BsmFI
Assay: enzyme reaction in vitro
Conditions: 5' amino-C6 biotinylated (NHS-LC-biotin) on SEQ 1; rCutSmart buffer, 37 C, 40 min; stem1 digested on beads, smaller fragments on denaturing gel; purified recombinant protein; protein details: NEB R0572L

## TTTTTTATTATATTACGCTAATAGCATTATATCATGTTAACGCAATGTCCCATATCGCTA / TAGCGATATGGGACATTGCGTTAACATGATATAATGCTATTAGCGTAATATAAT [TIIS stem1 / stem1 comp duplex]
  activity on this sequence: active
